The target of test [1] is USP14 (human (endogenous in LoVo and SW48)) (UniProt P54578). The test can be described thus: co-IP; endogenous proteins in LoVo and SW48 lysates; lysis buffer 1% NP-40, 150 mM NaCl, 50 mM Tris-HCl pH 7.4, 1 mM EDTA; 2 µg antibody per 1 mg lysate overnight at 4 °C, Protein A/G beads.
Test [2] deals with Myc-tagged USP14 (human) (UniProt P54578). The test can be described thus: co-IP; HEK293T cells co-transfected with Myc-tagged USP14 and Flag-tagged BAG4 plasmids (whole or truncated); lysis buffer 1% NP-40, 150 mM NaCl, 50 mM Tris-HCl pH 7.4, 1 mM EDTA; Protein A/G beads.

By UniProt entry, the sequences of proteins in these tests, tags left out.
UniProt P54578: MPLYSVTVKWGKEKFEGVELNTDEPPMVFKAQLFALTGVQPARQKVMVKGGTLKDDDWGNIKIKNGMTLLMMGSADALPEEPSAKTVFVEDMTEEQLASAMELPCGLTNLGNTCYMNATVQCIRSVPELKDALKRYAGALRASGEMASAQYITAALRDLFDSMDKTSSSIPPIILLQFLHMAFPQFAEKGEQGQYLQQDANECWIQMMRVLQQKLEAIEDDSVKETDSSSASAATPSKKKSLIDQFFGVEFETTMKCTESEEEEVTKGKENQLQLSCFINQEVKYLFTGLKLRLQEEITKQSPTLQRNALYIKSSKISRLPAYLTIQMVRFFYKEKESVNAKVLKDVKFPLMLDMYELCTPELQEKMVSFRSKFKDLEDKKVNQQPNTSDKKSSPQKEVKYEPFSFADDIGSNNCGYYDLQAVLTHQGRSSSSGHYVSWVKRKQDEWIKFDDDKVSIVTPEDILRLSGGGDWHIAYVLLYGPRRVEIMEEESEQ

This passage reports binding results from paper PMC12048998.

No constants are given. Whether binding was seen depends on the method and setting. Binding seen in cells or lysates may run through a third protein. Some results given as binding are weak or reduced against the parent protein; the word gives no strength. For some assays here: Sequences can lack the tags named with a protein.

B1: BAG4 (protein, UniProt O95429 1-457)
chain: MSALRRSGYGPSDGPSYGRYYGPGGGDVPVHPPPPLYPLRPEPPQPPISWRVRGGGPAETTWLGEGGGGDGYYPSGGAWPEPGRAGGSHQEQPPYPSYNSNYWNSTARSRAPYPSTYPVRPELQGQSLNSYTNGAYGPTYPPGPGANTASYSGAYYAPGYTQTSYSTEVPSTYRSSGNSPTPVSRWIYPQQDCQTEAPPLRGQVPGYPPSQNPGMTLPHYPYGDGNRSVPQSGPTVRPQEDAWASPGAYGMGGRYPWPSSAPSAPPGNLYMTESTSPWPSSGSPQSPPSPPVQQPKDSSYPYSQSDQSMNRHNFPCSVHQYESSGTVNNDDSDLLDSQVQYSAEPQLYGNATSDHPNNQDQSSSLPEECVPSDESTPPSIKKIIHVLEKVQYLEQEVEEFVGKKTDKAYWLLEEMLTKELLELDSVETGGQDSVRQARKEAVCKIQAILEKLEKKGL
Take B1: in test [1], the binding result was “binds”.

B2: Flag-tagged BAG4 (protein, UniProt O95429 1-457)
chain: B1 chain
B2: in test [2], the binding result is given as “binds”.
